Measured values reported in patent US9962341B2, “Active pharmaceutical ingredient (API) comprising cannabinoids for use in the treatment of cancer” (GW Pharma Limited, priority 2014, dated 2018).

Tests used:
Assay type in all cases: cell-based
[1] = test system: MKN45; experiment: Cell viability (CellTiter-Blue, 72 h), MKN45 gastric cancer cells; conditions: 1% FBS
Method: (§1) The following cell lines were tested in this example: Lung Cancer (A549, NCI-H460); Pancreatic cancer (PANC1, Mia-Pa-Ca-2); Melanoma (WM115, A375); Ovarian cancer (OVCAR3, SKOV3); Gastric cancer (MKN45, HGC-27); Renal cancer (ACHN) and Bladder Cancer (RT112).
(§2) Each tumour cell line was maintained in vitro in RPMI 1640+10% heat inactivated FBS and 2 mM L-glutamine (growth media) at 37° C. in 5% CO2 and humidified conditions. The cells were harvested, washed, re-suspended into growth medium and counted. The cells were re-suspended into assay media (RPMI 1640+5% heat inactivated FBS+ and 2 mM L-glutamine) at 4×10^4 cells/ml (dependent upon cell type) and plated into the middle 240 wells of 384 well tissue culture plates (Corning CellBind, black-wall plates) 25 μl/well aliquots; 50 μl of growth media was aliquoted into the outer wells. There were 3 plates for each cell line.
(§3) The plates were incubated overnight at 37° C., in 5% humidified CO2.
(§4) The phytocannabinoid test compounds were prepared in 100% DMSO vehicle at a stock concentration of 20 and 40 mM.
(§5) Starting with the 20 mM stock in DMSO, this was serially diluted (2 fold) in DMSO in a 96-well plate, to 20 (no dilution), 10, 5, 2.5, 1.25, 0.625, 0.315, 0.157 and […]. Following this, 10 ul of each compound dilution was diluted into 990 ul of 1% (v/v) FBS media in a deep well block making the final concentrations of 200, 100, 50, 25, 12.5, 6.25, 3.125, 1.56 and 0.79 μM (2× final assay concentrations and 1% DMSO).
(§6) An equal volume of each cannabinoid in the combination (stock concentration 40 mM) was mixed together to make a stock of 20 mM of each cannabinoid in DMSO. This was serially diluted (2 fold) in DMSO in a 96-well plate, to 20 (no dilution), 10, 5, 2.5, 1.25, 0.625, 0.315, 0.157 and […]. Following this, 10 ul of each combination dilution was diluted into 990 ul of 1% (v/v) FBS media in a deep well block making the final concentrations of 200, 100, 50, 25, 12.5, 6.25, 3.125, 1.56 and 0.79 μM (2× final assay concentrations and 1% DMSO).
(§7) Cisplatin (stock of 1 mg/ml=3.33 mM in water) was diluted in 1% FBS media to give a stock concentration of 1 mM. This was then diluted in 1% FBS media from the stock solution to 200 μM, then serially diluted (3-fold) in 1% FBS media to 200 (no dilution), 66.66, 22.22, 7.41, 2.47, 0.82, 0.27, 0.09, 0.03 μM (2× final assay concentrations; no DMSO).
(§8) The plates were incubated for 72 h at 37° C. in 5% humidified CO2. To develop the plates, at 72 h, 10 μl of CellTiter-Blue™ reagent was added to each test/blank well.
(§9) The plates were incubated at 37° C., 5% humidified CO2. Fluorescence was measured using a Flex II Station plate reader (570 nm excitation wavelength, 600 nm emission wavelength, 590 nm cut-off) after 3 h.
(§10) The phytocannabinoid compounds CBD, CBGA, CBG, CBDA, THCV and THC were tested on a panel of lung (A549, NCI-H460), pancreatic (PANC1, Mia-Pa-Ca-2), melanoma (WM115, A375), ovarian (OVCAR3, SKOV3), gastric (MKN45, HGC-27), renal (ACHN) and bladder (RT112) cancer cell lines according to the protocol for 72 h in media containing 1% FBS.
(§11) The IC50 values for each phytocannabinoid and combination of CBD with the other phytocannabinoids was calculated for each cell line. The raw data values expressed in relative fluorescent units were normalised to the vehicle for each individual plate and any reduction in fluorescence indicated a decrease in viability.
(§12) This calculation was as described in Example 1 above.

[2] = test system: HGC-27; experiment: Cell viability (CellTiter-Blue, 72 h), HGC-27 gastric cancer cells; conditions: HGC27 cells, 1% FBS
Method: as §1, §2, §3, §4, §5, §6, §7, §8, §9, §10, §11, §12

[3] = test system: PANC-1; experiment: Cell viability (CellTiter-Blue, 72 h), PANC-1 pancreatic cancer cells; conditions: PANC-1, 1% FBS
Method: as §1, §2, §3, §4, §5, §6
Gemcitabine SOC was prepared in 100% DMSO to give a stock concentration of 20 mM. This was then serially diluted (3 fold) in DMSO in a 96-well plate, to 20 (no dilution), 6.6, 2.2, 0.741, 0.247, 0.082, 0.027, 0.009 and 0.003 mM. Following this, 10 ul of each dilution was further diluted into 990 ul of 1% (v/v) FBS media making the final concentrations of 200 (no dilution), 66.66, 22.22, 7.41, 2.47, 0.82, 0.27, 0.09, 0.03 μM (2× final assay concentrations and 1% DMSO).
as §8, §9, §10, §11, §12

[4] = test system: A375; experiment: Cell viability (CellTiter-Blue, 72 h), A375 melanoma cells; conditions: A375, 1% FBS
Method: as §1, §2, §3, §4, §5, §6, §7, §8, §9, §10, §11, §12

Structure (SMILES)	m (shape parameter of the curve) [1]	m (shape parameter of the curve) [2]	m (shape parameter of dose effect curve) [3]	m (shape parameter of dose effect curve) [4]
CCCCCc1cc(O)c(C/C=C(\C)CCC=C(C)C)c(O)c1C(=O)O [CBGA, Cannabigerolic acid]	3.48	2.41	4.12	3.46
CCCCCc1cc(O)c(C/C=C(\C)CCC=C(C)C)c(O)c1 [CBG, Cannabigerol]	10.80	4.77	5.52	3.24
CCCc1cc(O)c2c(c1)OC(C)(C)[C@@H]1CCC(C)=C[C@@H]21 [THCV, Tetrahydrocannabivarin]	5.90	1.60	6.63	5.87
C=C(C)[C@@H]1CCC(C)=C[C@H]1c1c(O)cc(CCCCC)c(C(=O)O)c1O [CBDA, Cannabidiolic acid]	2.98	3.86	3.11	3.85
C=C(C)[C@@H]1CCC(C)=C[C@H]1c1c(O)cc(CCCCC)cc1O [CBD, Cannabidiol]	9.82	4.61	7.80	8.30
